Reference: PubChem BioAssay AID1224830 (NIAID, 2016)
The whole screen tested about 18,000 reagents; below is an unselected part. About 2,900 of all reagents (16%) count as active. 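Calls are made per well; low scores hint the gene aids the LPS response, high scores that it dampens it.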 Repeated entries: four replicate wells of each siRNA pool. No sequences are given here.

Assay: 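Host factors that control LPS-induced TNF expression in human macrophages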 (primary screen)
Cells: human THP-1 monocytic leukaemia cells, TNF dual-luciferase reporter clone, PMA-differentiated to macrophage-like cells
Knock-down reagent: siRNA pool against human genes, 50 nM
Timing: LPS for 4 h, given about 3 days after siRNA transfection
Challenge: bacterial LPS (TLR4 ligand), 10 ng/ml
Measurement: 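Ratio of firefly to renilla light, scaled to the plate median and expressed as a robust z-score per replicate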
Reading the numbers: TNF reporter robust z-score: higher = stronger TNF reporter response to LPS
Rule for the call: 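Each well counts as active if its z-score is over 2.8 or under -1.5; controls are left without a call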

target | PubChem SID | TNF reporter robust z-score | Outcome
ALG3 (ALG3 alpha-1,3- mannosyltransferase) | SID315453893 | -0.31 | inactive
ALG3 (ALG3 alpha-1,3- mannosyltransferase) | SID315453893 | 1.9 | inactive
ALG3 (ALG3 alpha-1,3- mannosyltransferase) | SID315453893 | 0.57 | inactive
ALG3 (ALG3 alpha-1,3- mannosyltransferase) | SID315453893 | 2.83 | active
TEDDM1 (transmembrane epididymal protein 1) | SID315461764 | 0.23 | inactive
TEDDM1 (transmembrane epididymal protein 1) | SID315461764 | -0.37 | inactive
TEDDM1 (transmembrane epididymal protein 1) | SID315461764 | 0.16 | inactive
TEDDM1 (transmembrane epididymal protein 1) | SID315461764 | 0.1 | inactive
MRPL41 (mitochondrial ribosomal protein L41) | SID315459059 | -1.11 | inactive
MRPL41 (mitochondrial ribosomal protein L41) | SID315459059 | -0.08 | inactive
MRPL41 (mitochondrial ribosomal protein L41) | SID315459059 | -0.95 | inactive
MRPL41 (mitochondrial ribosomal protein L41) | SID315459059 | -0.49 | inactive
KIAA0930 | SID315455154 | -0.97 | inactive
KIAA0930 | SID315455154 | -0.87 | inactive
KIAA0930 | SID315455154 | -0.63 | inactive
KIAA0930 | SID315455154 | -1.65 | active
R3HDML (R3H domain containing like) | SID315462161 | -0.18 | inactive
R3HDML (R3H domain containing like) | SID315462161 | -0.89 | inactive
R3HDML (R3H domain containing like) | SID315462161 | -0.36 | inactive
R3HDML (R3H domain containing like) | SID315462161 | 0.16 | inactive
MIB2 (MIB E3 ubiquitin protein ligase 2) | SID315462163 | 1.92 | inactive
MIB2 (MIB E3 ubiquitin protein ligase 2) | SID315462163 | 1.8 | inactive
MIB2 (MIB E3 ubiquitin protein ligase 2) | SID315462163 | 3.08 | active
MIB2 (MIB E3 ubiquitin protein ligase 2) | SID315462163 | 2.76 | inactive
GDI2 (GDP dissociation inhibitor 2) | SID315448875 | 0.05 | inactive
GDI2 (GDP dissociation inhibitor 2) | SID315448875 | -0.46 | inactive
GDI2 (GDP dissociation inhibitor 2) | SID315448875 | -0.17 | inactive
PVRIG (PVR related immunoglobulin domain containing) | SID315459173 | 3.52 | active
PVRIG (PVR related immunoglobulin domain containing) | SID315459173 | 3.03 | active
PVRIG (PVR related immunoglobulin domain containing) | SID315459173 | 3.15 | active
PVRIG (PVR related immunoglobulin domain containing) | SID315459173 | 3.63 | active
SZRD1 (SUZ RNA binding domain containing 1) | SID315455669 | 0.32 | inactive
SZRD1 (SUZ RNA binding domain containing 1) | SID315455669 | -1.36 | inactive
SZRD1 (SUZ RNA binding domain containing 1) | SID315455669 | -1.47 | inactive
SZRD1 (SUZ RNA binding domain containing 1) | SID315455669 | -0.16 | inactive
KATNBL1 (katanin regulatory subunit B1 like 1) | SID315459446 | 1.48 | inactive
KATNBL1 (katanin regulatory subunit B1 like 1) | SID315459446 | 2 | inactive
KATNBL1 (katanin regulatory subunit B1 like 1) | SID315459446 | 1.18 | inactive
KATNBL1 (katanin regulatory subunit B1 like 1) | SID315459446 | 3.24 | active
PIN1 (peptidylprolyl cis/trans isomerase, NIMA-interacting 1) | SID315450597 | -0.29 | inactive
PIN1 (peptidylprolyl cis/trans isomerase, NIMA-interacting 1) | SID315450597 | 0.05 | inactive
PIN1 (peptidylprolyl cis/trans isomerase, NIMA-interacting 1) | SID315450597 | 0.75 | inactive
PIN1 (peptidylprolyl cis/trans isomerase, NIMA-interacting 1) | SID315450597 | 0.11 | inactive
ACSL4 (acyl-CoA synthetase long chain family member 4) | SID315448627 | 0.6 | inactive
ACSL4 (acyl-CoA synthetase long chain family member 4) | SID315448627 | -0.03 | inactive
ACSL4 (acyl-CoA synthetase long chain family member 4) | SID315448627 | -0.08 | inactive
ACSL4 (acyl-CoA synthetase long chain family member 4) | SID315448627 | 1.46 | inactive
NT5DC1 (5'-nucleotidase domain containing 1) | SID315463282 | 0.59 | inactive
NT5DC1 (5'-nucleotidase domain containing 1) | SID315463282 | -0.87 | inactive
NT5DC1 (5'-nucleotidase domain containing 1) | SID315463282 | 0.31 | inactive
NT5DC1 (5'-nucleotidase domain containing 1) | SID315463282 | 1.28 | inactive
ZNF446 (zinc finger protein 446) | SID315457754 | 2.11 | inactive
ZNF446 (zinc finger protein 446) | SID315457754 | 1.09 | inactive
ZNF446 (zinc finger protein 446) | SID315457754 | 0.1 | inactive
ZNF446 (zinc finger protein 446) | SID315457754 | 0.9 | inactive
NKX2-8 (NK2 homeobox 8) | SID315455739 | -0.37 | inactive
NKX2-8 (NK2 homeobox 8) | SID315455739 | 0.72 | inactive
NKX2-8 (NK2 homeobox 8) | SID315455739 | 0.46 | inactive
NKX2-8 (NK2 homeobox 8) | SID315455739 | 1.69 | inactive
C19orf18 (chromosome 19 open reading frame 18) | SID315462330 | 1.42 | inactive
C19orf18 (chromosome 19 open reading frame 18) | SID315462330 | 2.03 | inactive
C19orf18 (chromosome 19 open reading frame 18) | SID315462330 | 0.44 | inactive
C19orf18 (chromosome 19 open reading frame 18) | SID315462330 | 1.04 | inactive
EBNA1BP2 (EBNA1 binding protein 2) | SID315454498 | 1.8 | inactive
EBNA1BP2 (EBNA1 binding protein 2) | SID315454498 | 1.28 | inactive
EBNA1BP2 (EBNA1 binding protein 2) | SID315454498 | 0.63 | inactive
EBNA1BP2 (EBNA1 binding protein 2) | SID315454498 | 1.52 | inactive
CNN2 (calponin 2) | SID315447999 | 0.94 | inactive
CNN2 (calponin 2) | SID315447999 | -0.14 | inactive
CNN2 (calponin 2) | SID315447999 | 0.42 | inactive
CNN2 (calponin 2) | SID315447999 | -0.25 | inactive
POLD1 (DNA polymerase delta 1, catalytic subunit) | SID315450682 | -0.44 | inactive
POLD1 (DNA polymerase delta 1, catalytic subunit) | SID315450682 | 1.08 | inactive
POLD1 (DNA polymerase delta 1, catalytic subunit) | SID315450682 | -0.19 | inactive
POLD1 (DNA polymerase delta 1, catalytic subunit) | SID315450682 | 0.17 | inactive
